The values that follow come from PMC10825186, “A universal metabolite repair enzyme removes a strong inhibitor of the TCA cycle” (Nature Communications, 2024).

Substrate in this series: O=C(O)C=C(O)C(=O)O
Briefly: purified protein. To be noted: pH 7.5, 22 °C, 10 mM potassium phosphate, 0.3 mM NADH, malate dehydrogenase, OAA added in dry acetone.

B1: At FAHD1 (Arabidopsis thaliana) (protein)
chain: MATSMIQRMFKQGTKIVCVGRNYAAHAKELGNAVPKEPVIFLKPTSSYLENGGTIEIPHPLDSLHHEVELALVIGQKARDVPESIAMDYIGGYAVALDMTARELQASAKASGLPWTVAKGQDTFTPISSVLPKAMVRDPDNLELWLKVDGETRQKGLTKDMIFKVPYLISYISSIMTLYEGDVILTGTPEGVGPVKIGQKITAGITGLSEVQFDVERRVKPLS
What is called Km is the concentration of substrate that gives half-maximal velocity. By Vmax is commonly meant the top rate of the reaction or transport when substrate is in excess. A word on the kcat: it is the maximal rate divided by the concentration of active sites. As usually defined, the kcat/Km is the second-order rate constant that governs catalysis at low substrate concentration. With B1, the Km was determined as 48.8 ± 1.8 µM, the Vmax amounted to 8.4 µmol/min/mg, the kcat was 3.7 s⁻¹ and the kcat/Km is 74800 M⁻¹ s⁻¹.

B2: At FAHD2 (Arabidopsis thaliana) (protein)
chain: MATSMIQRLFKQGTKIVGVGLNYASHAKELGNALPKDPIVFLKPTSSYLENGGTIEIPHPLDSLHHEVELAVVIGQKARDVPERLAMNYIGGYALALDMTARELQVSAMASGLPCTLAKGQDTFTPISSVLPKAMVLDPNNLELWLKVDDETRQKGWTKDMIFKVPYLISYISSVMTLFKGDVILTGTPEGIGPVKIGQKITAGITGLSEVQFDVGRRLKPLLR
As to B2, the Km worked out at 66.0 ± 4.9 µM, the Vmax was 1.7 µmol/min/mg, the kcat came out at 0.7 s⁻¹ and the specificity constant (kcat/Km) amounted to 11000 M⁻¹ s⁻¹.
